This is an account of results in PMC12003649.

By UniProt entry, the sequences of proteins in these tests, tags left out. Residues count along the entry.
UniProt P11021, residues 19-654: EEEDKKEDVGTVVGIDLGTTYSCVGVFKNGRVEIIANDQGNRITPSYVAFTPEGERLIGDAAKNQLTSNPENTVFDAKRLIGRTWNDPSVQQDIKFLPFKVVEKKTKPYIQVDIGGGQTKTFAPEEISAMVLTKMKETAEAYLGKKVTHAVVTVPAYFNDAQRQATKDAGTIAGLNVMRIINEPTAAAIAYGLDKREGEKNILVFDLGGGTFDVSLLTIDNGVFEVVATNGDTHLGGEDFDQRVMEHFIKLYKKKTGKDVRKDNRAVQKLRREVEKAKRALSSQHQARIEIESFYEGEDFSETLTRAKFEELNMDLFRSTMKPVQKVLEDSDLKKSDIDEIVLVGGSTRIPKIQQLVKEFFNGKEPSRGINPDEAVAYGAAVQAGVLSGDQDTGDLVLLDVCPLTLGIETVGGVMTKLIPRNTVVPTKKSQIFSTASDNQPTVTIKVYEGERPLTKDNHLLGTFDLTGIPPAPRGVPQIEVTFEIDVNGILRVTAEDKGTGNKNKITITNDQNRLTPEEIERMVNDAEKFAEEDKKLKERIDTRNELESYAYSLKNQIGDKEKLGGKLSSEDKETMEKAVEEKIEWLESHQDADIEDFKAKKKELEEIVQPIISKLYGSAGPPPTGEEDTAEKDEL
UniProt Q14457: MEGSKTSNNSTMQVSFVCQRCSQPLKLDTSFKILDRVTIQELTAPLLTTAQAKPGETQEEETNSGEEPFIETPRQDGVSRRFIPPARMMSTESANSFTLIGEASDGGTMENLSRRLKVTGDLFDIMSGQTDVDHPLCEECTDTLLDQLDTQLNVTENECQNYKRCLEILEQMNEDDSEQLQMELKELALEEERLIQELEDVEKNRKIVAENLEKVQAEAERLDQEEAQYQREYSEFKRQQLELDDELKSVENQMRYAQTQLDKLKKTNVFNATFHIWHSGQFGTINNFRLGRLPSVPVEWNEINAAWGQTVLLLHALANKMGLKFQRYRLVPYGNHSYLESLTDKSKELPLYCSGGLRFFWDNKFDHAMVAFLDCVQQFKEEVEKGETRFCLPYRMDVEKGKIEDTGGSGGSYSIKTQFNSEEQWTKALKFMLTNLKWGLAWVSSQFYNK

Results are given in words; binding and its absence hold for the method and conditions named. Binding seen in cells or lysates may run through a third protein. Some results given as binding are weak or reduced against the parent protein; the word gives no strength.

In the test the target is HSPA5 (human (endogenous in A2780 and SKOV3)) (UniProt P11021). The experiment in a line: co-IP; lysate of OC cells incubated overnight with BECN1 or HSPA5 antibody, Protein A/G agarose beads, 4 °C 2 h; BECN1, HSPA5 and HMGCR detected by western blot; cells also with sh-BECN1, oe-BECN1, HMGCR overexpression or sh-ESM1.

In the case of “Beclin 1 (BECN1) (from UniProt Q14457 1-450)”, the binding result is on record as “binds”.

B1: HMGCR (protein, UniProt P04035 1-888)
chain: MLSRLFRMHGLFVASHPWEVIVGTVTLTICMMSMNMFTGNNKICGWNYECPKFEEDVLSSDIIILTITRCIAILYIYFQFQNLRQLGSKYILGIAGLFTIFSSFVFSTVVIHFLDKELTGLNEALPFFLLLIDLSRASTLAKFALSSNSQDEVRENIARGMAILGPTFTLDALVECLVIGVGTMSGVRQLEIMCCFGCMSVLANYFVFMTFFPACVSLVLELSRESREGRPIWQLSHFARVLEEEENKPNPVTQRVKMIMSLGLVLVHAHSRWIADPSPQNSTADTSKVSLGLDENVSKRIEPSVSLWQFYLSKMISMDIEQVITLSLALLLAVKYIFFEQTETESTLSLKNPITSPVVTQKKVPDNCCRREPMLVRNNQKCDSVEEETGINRERKVEVIKPLVAETDTPNRATFVVGNSSLLDTSSVLVTQEPEIELPREPRPNEECLQILGNAEKGAKFLSDAEIIQLVNAKHIPAYKLETLMETHERGVSIRRQLLSKKLSEPSSLQYLPYRDYNYSLVMGACCENVIGYMPIPVGVAGPLCLDEKEFQVPMATTEGCLVASTNRGCRAIGLGGGASSRVLADGMTRGPVVRLPRACDSAEVKAWLETSEGFAVIKEAFDSTSRFARLQKLHTSIAGRNLYIRFQSRSGDAMGMNMISKGTEKALSKLHEYFPEMQILAVSGNYCTDKKPAAINWIEGRGKSVVCEAVIPAKVVREVLKTTTEAMIEVNINKNLVGSAMAGSIGGYNAHAANIVTAIYIACGQDAAQNVGSSNCITLMEASGPTNEDLYISCTMPSIEIGTVGGGTNLLPQQACLQMLGVQGACKDNPGENARQLARIVCGTVMAGELSLMAALAAGHLVKSHMIHNRSKINLQDLQGACTKKTA
On to B1, for which the binding result is listed as “binds”.
